In patent publication US20250277057A1 (OKLAHOMA MEDICAL RESEARCH FOUNDATION, published 2025):

Columns and labels:
[1] = target: human activated protein C (human); test: Octet BLI
[2] = target: human activated protein C (human); test: ELISA, plate coated with haPC 1 ug/mL, anti-hIgG-Fc-HRP
[3] = target: human activated protein C (human); test: KD ELISA of Fab
[4] = target: human activated protein C (human); test: preliminary screening of the Fab mutant library, ELISA

Binder	binding [1]	binding [2]	binding [3]	binding [4]
HAPC-14-9 (antibody, V domains shown, Whole IgG, backbone hIgG1; also called HPAC 14-9) VH: EVQLVESGGGLVQPGGSLRLSCAASGFTFSFYYLNWVRQAPGKGLEWVGDIRLKKNNYEKHYAESVKGRFTISRDDSKSITYLQMNSLRAEDTAVYYCAREGDTFDYWGQGTTVTVSS VL: DIQLTQSPSSLSASVGDRVTITCRASESVDSFGATFMHWYQQKPGKAPKLLIYLASRLGSGVPSRFSGSGSGTDFTLTISSLQPEDFATYYCQQNNEDPYTFGQGTKLEIK	binds	binds	–	–
R2-24D4 (Fab, V domains shown, Combinatorial mutant Fab of HAPC-14; also called combinatorial mutant No. 10) VH: EVQLVESGGGLVQPGGSLRLSCAASGFTFSFYYLNWVRQAPGKGLEWVGDIRLKKNNYEKHYAESVKGRFTISRDDSKSITYLQMNSLRAEDTAVYYCAREGDTFDYWGQGTTVTVSS VL: DIQLTQSPSSLSASVGDRVTITCRASESVDSFGATFMHWYQQKPGKAPKLLIYLASWLPSGVPSRFSGSGSGTDFTLTISSLQPEDFATYYCQQNNEDPYTFGQGTKLEIK	–	–	binds	–

The remaining lines, values ahead:

binding [1]	binding [2]	binding [3]	binding [4]	Binder
binds	binds	–	–	HAPC-14-10 (antibody, V domains shown, Whole IgG, backbone hIgG1; also called HPAC 14-10) VH: EVQLVESGGGLVQPGGSLRLSCAASGFTFSNYYLNWVRQAPGKGLEWVGDIRLKKNNYEKHYAESVKGRFTISRDDSKSITYLQMNSLRAEDTAVYYCAREGDTFDYWGQGTTVTVSS VL: DIQLTQSPSSLSASVGDRVTITCRASESVDSFGATFMHWYQQKPGKAPKLLIYLASRLGSGVPSRFSGSGSGTDFTLTISSLQPEDFATYYCVQNNEDPYTFGQGTKLEIK
–	–	–	binds	HAPC-14-R1-3H4-C6 (Fab, V domains shown, Single-site mutant Fab of HAPC-14) VH: EVQLVESGGGLVQPGGSLRLSCAASGFTFSNYYLNWVRQAPGKGLEWVGDIRLKSNNYEKHYAESVKGRFTISRDDSKSITYLQMNSLRAEDTAVYYCAREGDTFDYWGQGTTVTVSS VL: DIQLTQSPSSLSASVGDRVTITCRASESVDSFGATFMHWYQQKPGKAPKLLIYLASNLESGVPSRFSGSGSGTDFTLTISSLQPEDFATYYCQQNNEDPYTFGQGTKLEIK

These are yes or no findings as the source states them, for the method shown. Binding calls can cover weak binding; strength is not graded here.
